Measurements reported in PubChem BioAssay AID1347423 (Functional Genomics Laboratory (NCATS/FGL), 2020).
The whole screen tested about 52,000 sequences, of which about 210 (0.4%) were called active.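 Rule for the calls: active = gene whose silencing raises cell survival under the drug, median off-target-corrected z-score across its silencing RNAs 2 or more; inactive = the rest.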 The list shows a part of the results.

Test: Resistance to Poly (ADP-Ribose) Polymerase inhibitor: Gene Identification via Genome-wide siRNA Screen
Conditions: mouse BRCA2 R2336H ES cells, olaparib, CellTiter-Glo viability; hits give high values
In short: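 Mouse BRCA2 R2336H ES cells were reverse-transfected with siRNA (20 nM final), treated at 48 h with 500 nM olaparib, and read by CellTiter-Glo after 72 h. Scores: MAD-based z per siRNA, median per gene, seed off-target correction.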

| Sequence | z-score |
| --- | --- |
| GGACAAAAUACGUGAUAUUTT against Bcmo1 | inactive: -0.621 |
| GGAUAUGGAGAGUCAUGUGTT against Pcqap | inactive: 0.0423 |
| GGAGGAAAAUGUCCUUGUUTT against Pth | inactive: -0.885 |
| CCUCAUCACACAGGACCCATT against 8430411H09Rik | inactive: -1.46 |
| GGAAAGGUCAAGAGAAUUUTT against Strn3 | inactive: 1.02 |
| GGACAAGCUGAGGUGAAAATT against 4932425I24Rik | inactive: -1.23 |
| GGGAUUCUGCUGGCUAUGATT against Olfr641 | inactive: -2.48 |
| GGUAGAUAAUGAAGACAUCTT against Frk | inactive: 0.0585 |
| GGAAGUGCUAAAGAAGUACTT against Dtx4 | inactive: 0.371 |
| GGCCUUUAUUCUAUGCAGUTT against Htr3a | inactive: 0.27 |
| GCUAGGUGCUGCUACGAAATT against Gm720 | inactive: 0.591 |
| CCUCAAUCGGACCUGUAUUTT against Dstn | inactive: -0.635 |
| GCCUCUAUUCUACACCACATT against AI428855 | inactive: -0.104 |
| GAGAAACUCUGUGAAUAUATT against Zfp97 | inactive: 0.731 |
| GGAGAACAUUCAGGUGACATT against Pdgfd | inactive: -0.258 |
| GGCUCAACCAAGAAAGGCUTT against 4930591A17Rik | inactive: -0.211 |
| CCCAAAGGGUCAAGAUAAUTT against Hmgcr | inactive: 0.182 |
| GGCAAAAGCAAGCUCACAGTT against Pctk1 | inactive: -0.243 |
| GGAAAUUUACUCAAGAAGCTT against Trpc4ap | inactive: -0.66 |
| GGCCCAGUCCGAUAUUCUATT against Phxr4 | inactive: -0.793 |
| GCUGGUCCUAUCUGUGCUUTT against Olfr1099 | inactive: -1.97 |
| GCUCCUCGUCUCAUGAUAATT against Smc4l1 | inactive: -0.723 |

Two records drawn at random from the list so far, as already listed:

| Sequence | z-score |
| --- | --- |
| GGAGAACAUUCAGGUGACATT against Pdgfd | inactive: -0.258 |
| GGAGGAAAAUGUCCUUGUUTT against Pth | inactive: -0.885 |

Continued.

| Sequence | z-score |
| --- | --- |
| GCCUAUGAUUUACUGGAUCTT against Oas1b | inactive: -0.943 |
| GGCGGAAUACCCAAAAAUATT against Cdkal1 | inactive: -0.0838 |
| GGCUAUUUGUUACACCGUCTT against 0610041B22Rik | inactive: 0.312 |
| GGCAACUGUUACUUUUAAUTT against 2810046L04Rik | inactive: 0.303 |
| CCAGAAGUGAUCGCCUCUUTT against D930016N04Rik | inactive: 1.42 |
| GUUACUGCGUGGACUGUGUTT against C730034F03Rik | inactive: -0.937 |
| GGAAUGUCAAUCUUGAGAGTT against 2300003P22Rik | inactive: -1 |
| GGUGCGUAUAGCUUUCCGATT against Fbxo46 | inactive: -0.28 |
| CGAAGAUUAAUUUUGCUCATT against Lrrtm2 | inactive: 0.597 |
| CCUCUAUCGAGGUUCGUUCTT against Hspa5bp1 | inactive: 1.18 |
| GGAGACUUUGUCGUGUUUATT against D3Ertd300e | inactive: 0.256 |
| GGAUCCUUCGAAUCCUGAATT against Cst11 | inactive: -1.97 |
| GGCUUACCUGGUCUACUCCTT against Wnt8b | inactive: -1.64 |
| GCUUACCUGCUGUCUUAAUTT against F630003A18Rik | inactive: -2.14 |
| CCGGAGUUGAAACCUAAAATT against Nsbp1 | inactive: -0.0297 |
| GGACACAGACAUCCUCUUGTT against Sult5a1 | inactive: -2.39 |
| CCUAGUACUUCGAAGAAAGTT against 6430550H21Rik | inactive: 1.07 |
| CGAAAGGUAGUGCUUUCCATT against Hipk3 | inactive: -1.54 |
| GGACCCAAAACUACAGCCUTT against Olfr850 | inactive: 0.0168 |
| GGGUGUCAUAUCACAUAUGTT against Dpt | inactive: 0.474 |
| GGUGGUCUACAAGACAGUATT against 9130231C15Rik | inactive: 0.713 |
| GCUAUGUGGGAAGUUUCAUTT against AI597468 | inactive: 1.84 |

Part of the list above, with bars between the fields.
Sequence | z-score
GGCAACUGUUACUUUUAAUTT against 2810046L04Rik | inactive: 0.303
CCUAGUACUUCGAAGAAAGTT against 6430550H21Rik | inactive: 1.07
CGAAAGGUAGUGCUUUCCATT against Hipk3 | inactive: -1.54

(listing goes on)

| Sequence | z-score |
| --- | --- |
| CCUCCACUCCUAAUGAGAUTT against Cideb | inactive: -1.07 |
| GGCAUCUUCAAAUGACAUATT against Cic | active: 2.45 |
| GGAUAUACAUCAUUUCUCATT against D930015E06Rik | inactive: 0.0882 |
| GGUUGUGGUGUACAAGAUUTT against 2810046C01Rik | inactive: 0.818 |
| CCUUCAUUUAUUCUACGAGTT against LOC244556 | inactive: 0.476 |
| GGUGAUUAGCAAUCAUCAGTT against MGC107415 | inactive: -0.195 |
| CCAGUAGAAAGAAUCCAGATT against Gm128 | inactive: -1.55 |
| CCCGAUUAUUCAUCUGCACTT against Gm295 | inactive: -1.09 |
| CCUUUCUCCUGCUAUUUUATT against Tspyl1 | inactive: -2.14 |
| GGUUUCAGGCAUUAUCACATT against Tec | inactive: 0.522 |
| GGCCAAAUCAACCAACAGCTT against Rasgrp1 | inactive: 0.567 |
| GGACUGUUUACUCAGCUCATT against 5730438N18Rik | inactive: -0.132 |
| GGAGAAUGCAAUAUCAACUTT against Osbpl9 | inactive: -0.547 |
| CGAGACCUUUAUCUUGGAGTT against Unc13d | inactive: -0.232 |
| GCUAGAUCUUUCAUCCAACTT against A930016D02Rik | inactive: -0.21 |
| CCUCUACUCAAGUUUACUUTT against Casq2 | inactive: 1.08 |
| GGAUGUCUAACCCAAAUAGTT against Ly6e | inactive: -0.883 |
| GGCAGUAGAGUCCAUCCAGTT against Maea | inactive: -1.72 |
| GGCCAUUUCUAUGAAAUUATT against Olfr1016 | inactive: 0.873 |
| GGAAAUGCCAUCGUCAUUUTT against Gpr1 | inactive: 1.01 |
| GCCUUGAUUCGCAUAAUGATT against 0610025P10Rik | inactive: -1.29 |
| GGCUUUGACCCGAAAAGAATT against Zcchc11 | inactive: -0.539 |
